{"sequences": {"note": "By UniProt entry, the sequences of proteins in these tests, tags left out.", "UniProt P35222": "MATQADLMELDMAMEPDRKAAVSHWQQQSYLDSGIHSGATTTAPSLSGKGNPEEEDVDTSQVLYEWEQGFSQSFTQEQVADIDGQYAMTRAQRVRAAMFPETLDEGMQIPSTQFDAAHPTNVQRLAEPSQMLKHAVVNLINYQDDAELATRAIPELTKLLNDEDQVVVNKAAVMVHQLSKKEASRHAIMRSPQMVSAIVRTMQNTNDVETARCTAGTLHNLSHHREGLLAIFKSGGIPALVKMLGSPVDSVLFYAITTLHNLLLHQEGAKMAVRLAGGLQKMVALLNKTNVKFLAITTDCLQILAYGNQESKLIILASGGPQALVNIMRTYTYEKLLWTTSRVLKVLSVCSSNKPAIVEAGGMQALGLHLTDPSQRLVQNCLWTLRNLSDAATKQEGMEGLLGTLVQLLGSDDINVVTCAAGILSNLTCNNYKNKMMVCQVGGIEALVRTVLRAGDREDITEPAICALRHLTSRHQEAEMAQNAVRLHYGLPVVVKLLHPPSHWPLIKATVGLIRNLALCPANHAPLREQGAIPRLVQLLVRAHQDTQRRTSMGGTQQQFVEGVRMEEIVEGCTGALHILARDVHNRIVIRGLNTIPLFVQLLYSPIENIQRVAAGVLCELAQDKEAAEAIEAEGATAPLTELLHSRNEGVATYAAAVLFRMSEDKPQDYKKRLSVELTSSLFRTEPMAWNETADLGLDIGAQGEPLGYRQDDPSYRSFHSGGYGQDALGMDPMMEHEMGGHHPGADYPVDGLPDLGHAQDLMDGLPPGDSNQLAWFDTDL", "UniProt P35221": "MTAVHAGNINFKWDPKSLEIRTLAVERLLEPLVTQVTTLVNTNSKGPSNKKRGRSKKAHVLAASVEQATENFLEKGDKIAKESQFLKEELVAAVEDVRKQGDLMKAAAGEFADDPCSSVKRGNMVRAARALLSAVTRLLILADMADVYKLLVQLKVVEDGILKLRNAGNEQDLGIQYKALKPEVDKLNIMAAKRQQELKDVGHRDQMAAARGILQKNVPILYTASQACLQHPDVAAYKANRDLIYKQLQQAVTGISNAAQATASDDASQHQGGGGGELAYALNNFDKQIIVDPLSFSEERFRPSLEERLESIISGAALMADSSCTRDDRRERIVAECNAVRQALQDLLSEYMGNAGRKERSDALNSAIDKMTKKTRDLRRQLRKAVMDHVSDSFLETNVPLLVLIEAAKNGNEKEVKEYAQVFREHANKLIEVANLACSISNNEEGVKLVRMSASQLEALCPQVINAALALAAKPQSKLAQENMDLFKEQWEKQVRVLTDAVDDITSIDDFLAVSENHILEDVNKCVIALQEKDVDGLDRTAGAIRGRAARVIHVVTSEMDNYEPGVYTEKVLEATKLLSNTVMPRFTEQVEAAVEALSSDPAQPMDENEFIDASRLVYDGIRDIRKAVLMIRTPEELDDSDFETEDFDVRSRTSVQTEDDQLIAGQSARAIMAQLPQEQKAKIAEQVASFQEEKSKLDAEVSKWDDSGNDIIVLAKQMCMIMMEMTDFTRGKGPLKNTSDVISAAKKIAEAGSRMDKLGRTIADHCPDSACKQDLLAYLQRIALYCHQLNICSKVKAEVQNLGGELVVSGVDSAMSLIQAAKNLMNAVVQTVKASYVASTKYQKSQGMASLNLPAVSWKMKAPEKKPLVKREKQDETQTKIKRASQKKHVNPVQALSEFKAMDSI"}, "source": "paper PMC4891818", "key": {"[1]": {"target": "T1, FLAG-HA-tagged ACP1 (LMW-PTP) bait (human) (UniProt P24666)", "T1 sequence": "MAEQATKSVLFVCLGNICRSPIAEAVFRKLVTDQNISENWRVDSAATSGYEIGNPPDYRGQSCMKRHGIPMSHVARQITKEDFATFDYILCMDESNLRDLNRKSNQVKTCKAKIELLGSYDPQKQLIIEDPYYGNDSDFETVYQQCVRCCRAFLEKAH", "assay": "co-IP; HA-tagged bait immunoprecipitated from MCF10A lysate as for mass spectrometry, western blot for the associated endogenous protein, next to a control HA-GFP IP"}, "[2]": {"target": "β-catenin (CTNNB1), endogenous (human (endogenous in MCF10A)) (UniProt P35222)", "assay": "co-IP; endogenous β-catenin immunoprecipitated with anti-β-catenin antibody and protein A/G beads from MCF10A lysates (MCLB + PhosSTOP + 1 mM pervanadate), 4 °C, blot for α-catenin; cells with siRNA to GFP or DUSP23, or with control plasmid or HA-DUSP23"}}, "note": "These are yes or no findings as the source states them, for the method shown. In cells and extracts the contact can be indirect. Some binding calls cover weakened binding; strength is not graded here. For some assays here: Where a sequence is shown, tags or fusion partners need not be part of it."}
{"substance": "α-catenin (CTNNA1), endogenous (from UniProt P35221 1-906)", "values": [{"measurement": "binding", "setting": "[1]", "result": "binds"}, {"measurement": "binding", "setting": "[2]", "result": "binds"}]}
